No constants are given. Whether binding was seen depends on the method and setting. In cells and extracts the contact can be indirect. A yes stands for co-enrichment or nearness to the bait. Other partners may have been found.
B1: RNPS1 (protein, UniProt Q15287 1-305)
chain: MDLSGVKKKSLLGVKENNKKSSTRAPSPTKRKDRSDEKSKDRSKDKGATKESSEKDRGRDKTRKRRSASSGSSSTRSRSSSTSSSGSSTSTGSSSGSSSSSASSRSGSSSTSRSSSSSSSSGSPSPSRRRHDNRRRSRSKSKPPKRDEKERKRRSPSPKPTKVHIGRLTRNVTKDHIMEIFSTYGKIKMIDMPVERMHPHLSKGYAYVEFENPDEAEKALKHMDGGQIDGQEITATAVLAPWPRPPPRRFSPPRRMLPPPPMWRRSPPRMRRRSRSPRRRSPVRRRSRSPGRRRHRSRSSSNSSR
B2: MCM6 (protein, UniProt Q14566 1-821)
chain: MDLAAAAEPGAGSQHLEVRDEVAEKCQKLFLDFLEEFQSSDGEIKYLQLAEELIRPERNTLVVSFVDLEQFNQQLSTTIQEEFYRVYPYLCRALKTFVKDRKEIPLAKDFYVAFQDLPTRHKIRELTSSRIGLLTRISGQVVRTHPVHPELVSGTFLCLDCQTVIRDVEQQFKYTQPNICRNPVCANRRRFLLDTNKSRFVDFQKVRIQETQAELPRGSIPRSLEVILRAEAVESAQAGDKCDFTGTLIVVPDVSKLSTPGARAETNSRVSGVDGYETEGIRGLRALGVRDLSYRLVFLACCVAPTNPRFGGKELRDEEQTAESIKNQMTVKEWEKVFEMSQDKNLYHNLCTSLFPTIHGNDEVKRGVLLMLFGGVPKTTGEGTSLRGDINVCIVGDPSTAKSQFLKHVEEFSPRAVYTSGKASSAAGLTAAVVRDEESHEFVIEAGALMLADNGVCCIDEFDKMDVRDQVAIHEAMEQQTISITKAGVKATLNARTSILAAANPISGHYDRSKSLKQNINLSAPIMSRFDLFFILVDECNEVTDYAIARRIVDLHSRIEESIDRVYSLDDIRRYLLFARQFKPKISKESEDFIVEQYKHLRQRDGSGVTKSSWRITVRQLESMIRLSEAMARMHCCDEVQPKHVKEAFRLLNKSIIRVETPDVNLDQEEEIQMEVDEGAGGINGHADSPAPVNGINGYNEDINQESAPKASLRLGFSEYCRISNLIVLHLRKVEEEEDESALKRSELVNWYLKEIESEIDSEEELINKKRIIEKVIHRLTHYDHVLIELTQAGLKGSTEGSESYEEDPYLVVNPNYLLED
B3: SAP18 (protein, UniProt O00422 1-153)
chain: MAVESRVTQEEIKKEPEKPIDREKTCPLLLRVFTTNNGRHHRMDEFSRGNVPSSELQIYTWMDATLKELTSLVKEVYPEARKKGTHFNFAIVFTDVKRPGYRVKEIGSTMSGRKGTDDSMTLQSQKFQIGDYLDIAITPPNRAPPPSGRMRPY
B4: MCM3 (protein, UniProt P25205 1-808)
chain: MAGTVVLDDVELREAQRDYLDFLDDEEDQGIYQSKVRELISDNQYRLIVNVNDLRRKNEKRANRLLNNAFEELVAFQRALKDFVASIDATYAKQYEEFYVGLEGSFGSKHVSPRTLTSCFLSCVVCVEGIVTKCSLVRPKVVRSVHYCPATKKTIERRYSDLTTLVAFPSSSVYPTKDEENNPLETEYGLSVYKDHQTITIQEMPEKAPAGQLPRSVDVILDDDLVDKAKPGDRVQVVGTYRCLPGKKGGYTSGTFRTVLIACNVKQMSKDAQPSFSAEDIAKIKKFSKTRSKDIFDQLAKSLAPSIHGHDYVKKAILCLLLGGVERDLENGSHIRGDINILLIGDPSVAKSQLLRYVLCTAPRAIPTTGRGSSGVGLTAAVTTDQETGERRLEAGAMVLADRGVVCIDEFDKMSDMDRTAIHEVMEQGRVTIAKAGIHARLNARCSVLAAANPVYGRYDQYKTPMENIGLQDSLLSRFDLLFIMLDQMDPEQDREISDHVLRMHRYRAPGEQDGDAMPLGSAVDILATDDPNFSQEDQQDTQIYEKHDNLLHGTKKKKEKMVSAAFMKKYIHVAKIIKPVLTQESATYIAEEYSRLRSQDSMSSDTARTSPVTARTLETLIRLATAHAKARMSKTVDLQDAEEAVELVQYAYFKKVLEKEKKRKKRSEDESETEDEEEKSQEDQEQKRKRRKTRQPDAKDGDSYDPYDFSDTEEEMPQVHTPKTADSQETKESQKVELSESRLKAFKVALLDVFREAHAQSIGMNRLTESINRDSEEPFSSVEIQAALSKMQDDNQVMVSEGIIFLI
B5: MCM5 (protein, UniProt P33992 1-734)
chain: MSGFDDPGIFYSDSFGGDAQADEGQARKSQLQRRFKEFLRQYRVGTDRTGFTFKYRDELKRHYNLGEYWIEVEMEDLASFDEDLADYLYKQPAEHLQLLEEAAKEVADEVTRPRPSGEEVLQDIQVMLKSDASPSSIRSLKSDMMSHLVKIPGIIIAASAVRAKATRISIQCRSCRNTLTNIAMRPGLEGYALPRKCNTDQAGRPKCPLDPYFIMPDKCKCVDFQTLKLQELPDAVPHGEMPRHMQLYCDRYLCDKVVPGNRVTIMGIYSIKKFGLTTSRGRDRVGVGIRSSYIRVLGIQVDTDGSGRSFAGAVSPQEEEEFRRLAALPNVYEVISKSIAPSIFGGTDMKKAIACLLFGGSRKRLPDGLTRRGDINLLMLGDPGTAKSQLLKFVEKCSPIGVYTSGKGSSAAGLTASVMRDPSSRNFIMEGGAMVLADGGVVCIDEFDKMREDDRVAIHEAMEQQTISIAKAGITTTLNSRCSVLAAANSVFGRWDETKGEDNIDFMPTILSRFDMIFIVKDEHNEERDVMLAKHVITLHVSALTQTQAVEGEIDLAKLKKFIAYCRVKCGPRLSAEAAEKLKNRYIIMRSGARQHERDSDRRSSIPITVRQLEAIVRIAEALSKMKLQPFATEADVEEALRLFQVSTLDAALSGTLSGVEGFTSQEDQEMLSRIEKQLKRRFAIGSQVSEHSIIKDFTKQKYPEHAIHKVLQLMLRRGEIQHRMQRKVLYRLK
B6: ACINU (protein, UniProt Q9UKV3 1-1341)
chain: MWRRKHPRTSGGTRGVLSGNRGVEYGSGRGHLGTFEGRWRKLPKMPEAVGTDPSTSRKMAELEEVTLDGKPLQALRVTDLKAALEQRGLAKSGQKSALVKRLKGALMLENLQKHSTPHAAFQPNSQIGEEMSQNSFIKQYLEKQQELLRQRLEREAREAAELEEASAESEDEMIHPEGVASLLPPDFQSSLERPELELSRHSPRKSSSISEEKGDSDDEKPRKGERRSSRVRQARAAKLSEGSQPAEEEEDQETPSRNLRVRADRNLKTEEEEEEEEEEEEDDEEEEGDDEGQKSREAPILKEFKEEGEEIPRVKPEEMMDERPKTRSQEQEVLERGGRFTRSQEEARKSHLARQQQEKEMKTTSPLEEEEREIKSSQGLKEKSKSPSPPRLTEDRKKASLVALPEQTASEEETPPPLLTKEASSPPPHPQLHSEEEIEPMEGPAPAVLIQLSPPNTDADTRELLVSQHTVQLVGGLSPLSSPSDTKAESPAEKVPEESVLPLVQKSTLADYSAQKDLEPESDRSAQPLPLKIEELALAKGITEECLKQPSLEQKEGRRASHTLLPSHRLKQSADSSSSRSSSSSSSSSRSRSRSPDSSGSRSHSPLRSKQRDVAQARTHANPRGRPKMGSRSTSESRSRSRSRSRSASSNSRKSLSPGVSRDSSTSYTETKDPSSGQEVATPPVPQLQVCEPKERTSTSSSSVQARRLSQPESAEKHVTQRLQPERGSPKKCEAEEAEPPAATQPQTSETQTSHLPESERIHHTVEEKEEVTMDTSENRPENDVPEPPMPIADQVSNDDRPEGSVEDEEKKESSLPKSFKRKISVVSATKGVPAGNSDTEGGQPGRKRRWGASTATTQKKPSISITTESLKSLIPDIKPLAGQEAVVDLHADDSRISEDETERNGDDGTHDKGLKICRTVTQVVPAEGQENGQREEEEEEKEPEAEPPVPPQVSVEVALPPPAEHEVKKVTLGDTLTRRSISQQKSGVSITIDDPVRTAQVPSPPRGKISNIVHISNLVRPFTLGQLKELLGRTGTLVEEAFWIDKIKSHCFVTYSTVEEAVATRTALHGVKWPQSNPKFLCADYAEQDELDYHRGLLVDRPSETKTEEQGIPRPLHPPPPPPVQPPQHPRAEQREQERAVREQWAEREREMERRERTRSEREWDRDKVREGPRSRSRSRDRRRKERAKSKEKKSEKKEKAQEEPPAKLLDDLFRKTKAAPCIYWLPLTDSQIVQKEAERAERAKEREKRRKEQEEEEQKEREKEAERERNRQLEREKRREHSRERDRERERERERDRGDRDRDRERDRERGRERDRRDTKRHSRSRSRSTPVRDRGGRR
B7: TRIP13 (protein, UniProt Q15645 1-432)
chain: MDEAVGDLKQALPCVAESPTVHVEVHQRGSSTAKKEDINLSVRKLLNRHNIVFGDYTWTEFDEPFLTRNVQSVSIIDTELKVKDSQPIDLSACTVALHIFQLNEDGPSSENLEEETENIIAANHWVLPAAEFHGLWDSLVYDVEVKSHLLDYVMTTLLFSDKNVNSNLITWNRVVLLHGPPGTGKTSLCKALAQKLTIRLSSRYRYGQLIEINSHSLFSKWFSESGKLVTKMFQKIQDLIDDKDALVFVLIDEVESLTAARNACRAGTEPSDAIRVVNAVLTQIDQIKRHSNVVILTTSNITEKIDVAFVDRADIKQYIGPPSAAAIFKIYLSCLEELMKCQIIYPRQQLLTLRELEMIGFIENNVSKLSLLLNDISRKSEGLSGRVLRKLPFLAHALYVQAPTVTIEGFLQALSLAVDKQFEERKKLAAYI

Chains of the proteins cited; added tags and fusions are not shown.
UniProt Q9UER7: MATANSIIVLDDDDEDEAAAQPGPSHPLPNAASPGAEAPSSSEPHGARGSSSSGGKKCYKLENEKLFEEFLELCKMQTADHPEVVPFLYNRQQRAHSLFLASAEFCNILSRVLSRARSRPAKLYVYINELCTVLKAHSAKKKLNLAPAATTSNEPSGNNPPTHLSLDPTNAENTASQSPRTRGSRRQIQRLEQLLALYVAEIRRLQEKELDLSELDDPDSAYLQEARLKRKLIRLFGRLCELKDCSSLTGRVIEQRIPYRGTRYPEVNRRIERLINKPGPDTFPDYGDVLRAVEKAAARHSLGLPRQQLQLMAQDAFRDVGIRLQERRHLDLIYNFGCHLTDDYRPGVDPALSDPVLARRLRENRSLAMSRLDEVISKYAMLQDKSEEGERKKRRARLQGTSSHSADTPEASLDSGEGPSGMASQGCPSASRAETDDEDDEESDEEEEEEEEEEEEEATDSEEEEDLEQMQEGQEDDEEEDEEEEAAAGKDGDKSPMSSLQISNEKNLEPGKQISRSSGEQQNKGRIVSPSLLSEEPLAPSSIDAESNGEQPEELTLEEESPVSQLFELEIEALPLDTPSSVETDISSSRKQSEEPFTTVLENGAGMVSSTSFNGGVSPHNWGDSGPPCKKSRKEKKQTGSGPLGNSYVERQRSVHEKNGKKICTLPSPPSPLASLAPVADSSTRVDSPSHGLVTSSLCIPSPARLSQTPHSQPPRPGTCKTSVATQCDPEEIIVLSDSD
UniProt O00629: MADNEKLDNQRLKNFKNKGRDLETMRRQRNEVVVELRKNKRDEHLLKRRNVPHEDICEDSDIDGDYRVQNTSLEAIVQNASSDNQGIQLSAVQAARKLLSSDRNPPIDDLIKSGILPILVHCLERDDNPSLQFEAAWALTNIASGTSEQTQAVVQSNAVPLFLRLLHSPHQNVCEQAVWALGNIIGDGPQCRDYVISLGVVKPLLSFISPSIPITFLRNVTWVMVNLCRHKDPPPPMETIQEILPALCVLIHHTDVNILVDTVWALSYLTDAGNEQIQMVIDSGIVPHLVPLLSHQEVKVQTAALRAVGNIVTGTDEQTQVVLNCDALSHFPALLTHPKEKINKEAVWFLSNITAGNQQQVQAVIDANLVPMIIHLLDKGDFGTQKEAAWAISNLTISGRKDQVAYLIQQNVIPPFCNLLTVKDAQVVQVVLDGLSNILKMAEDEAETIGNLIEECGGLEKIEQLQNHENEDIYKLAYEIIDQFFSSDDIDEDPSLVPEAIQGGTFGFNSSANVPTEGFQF
UniProt P52701: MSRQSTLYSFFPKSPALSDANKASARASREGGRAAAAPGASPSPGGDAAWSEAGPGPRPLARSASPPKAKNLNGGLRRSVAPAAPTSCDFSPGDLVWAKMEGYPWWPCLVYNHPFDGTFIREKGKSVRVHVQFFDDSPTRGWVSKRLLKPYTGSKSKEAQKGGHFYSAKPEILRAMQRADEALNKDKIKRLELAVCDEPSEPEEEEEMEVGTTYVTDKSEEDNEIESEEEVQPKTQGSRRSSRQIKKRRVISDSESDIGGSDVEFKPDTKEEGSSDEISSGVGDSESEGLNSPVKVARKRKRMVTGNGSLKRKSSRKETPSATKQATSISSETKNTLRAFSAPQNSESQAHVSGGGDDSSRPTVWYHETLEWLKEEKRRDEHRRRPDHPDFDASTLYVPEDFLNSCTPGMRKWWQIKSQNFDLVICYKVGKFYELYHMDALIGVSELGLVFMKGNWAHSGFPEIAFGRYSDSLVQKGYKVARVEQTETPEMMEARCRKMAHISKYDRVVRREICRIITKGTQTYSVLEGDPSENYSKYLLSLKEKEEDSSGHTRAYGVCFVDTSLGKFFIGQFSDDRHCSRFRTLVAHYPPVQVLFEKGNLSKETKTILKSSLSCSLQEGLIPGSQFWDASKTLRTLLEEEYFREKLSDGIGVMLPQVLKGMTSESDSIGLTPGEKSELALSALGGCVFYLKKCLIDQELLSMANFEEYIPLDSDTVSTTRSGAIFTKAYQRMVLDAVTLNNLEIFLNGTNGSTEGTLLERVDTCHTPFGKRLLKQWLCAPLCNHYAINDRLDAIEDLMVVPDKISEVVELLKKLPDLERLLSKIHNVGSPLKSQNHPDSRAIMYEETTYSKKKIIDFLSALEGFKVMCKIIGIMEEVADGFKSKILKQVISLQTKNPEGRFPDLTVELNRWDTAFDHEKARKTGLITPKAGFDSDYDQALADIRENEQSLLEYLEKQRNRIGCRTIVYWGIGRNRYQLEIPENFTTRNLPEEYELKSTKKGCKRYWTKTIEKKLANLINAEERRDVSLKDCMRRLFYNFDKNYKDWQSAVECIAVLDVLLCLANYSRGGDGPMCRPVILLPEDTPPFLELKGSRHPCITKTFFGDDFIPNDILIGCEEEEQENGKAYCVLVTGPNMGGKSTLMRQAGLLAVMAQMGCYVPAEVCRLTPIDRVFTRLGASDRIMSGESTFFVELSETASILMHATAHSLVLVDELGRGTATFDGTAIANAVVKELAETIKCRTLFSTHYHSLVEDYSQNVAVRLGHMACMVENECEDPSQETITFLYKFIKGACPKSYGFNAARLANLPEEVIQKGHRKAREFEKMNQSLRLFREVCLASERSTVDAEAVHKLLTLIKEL
UniProt O43823: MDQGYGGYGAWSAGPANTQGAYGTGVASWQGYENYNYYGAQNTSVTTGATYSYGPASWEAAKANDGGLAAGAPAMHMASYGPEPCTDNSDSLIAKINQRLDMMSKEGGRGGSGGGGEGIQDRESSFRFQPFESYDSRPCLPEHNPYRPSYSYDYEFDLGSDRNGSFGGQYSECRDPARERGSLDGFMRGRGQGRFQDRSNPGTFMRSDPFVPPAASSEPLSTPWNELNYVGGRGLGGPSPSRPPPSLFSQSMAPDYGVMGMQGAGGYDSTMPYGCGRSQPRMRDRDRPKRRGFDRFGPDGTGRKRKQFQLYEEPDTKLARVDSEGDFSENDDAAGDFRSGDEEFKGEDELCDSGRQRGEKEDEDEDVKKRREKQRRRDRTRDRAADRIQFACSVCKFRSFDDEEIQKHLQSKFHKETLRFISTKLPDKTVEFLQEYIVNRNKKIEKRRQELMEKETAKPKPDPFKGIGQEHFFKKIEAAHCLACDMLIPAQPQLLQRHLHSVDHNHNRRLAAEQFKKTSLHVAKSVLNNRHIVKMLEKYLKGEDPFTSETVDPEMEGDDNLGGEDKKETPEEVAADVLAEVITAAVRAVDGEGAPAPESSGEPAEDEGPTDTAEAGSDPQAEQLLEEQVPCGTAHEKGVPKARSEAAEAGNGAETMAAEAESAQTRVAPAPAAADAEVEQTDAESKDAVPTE
UniProt Q9Y265: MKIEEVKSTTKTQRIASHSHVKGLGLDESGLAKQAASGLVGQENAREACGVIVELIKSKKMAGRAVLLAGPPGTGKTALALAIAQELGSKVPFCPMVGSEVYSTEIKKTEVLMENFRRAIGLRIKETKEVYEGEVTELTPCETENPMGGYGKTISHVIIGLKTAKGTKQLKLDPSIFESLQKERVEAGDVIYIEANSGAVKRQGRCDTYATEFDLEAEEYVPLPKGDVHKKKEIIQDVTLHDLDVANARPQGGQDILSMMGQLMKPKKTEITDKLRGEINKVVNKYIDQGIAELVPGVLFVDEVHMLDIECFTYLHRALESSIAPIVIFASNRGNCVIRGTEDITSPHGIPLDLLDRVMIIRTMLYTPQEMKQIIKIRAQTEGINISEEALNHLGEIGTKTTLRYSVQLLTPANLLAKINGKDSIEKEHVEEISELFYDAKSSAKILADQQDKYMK
UniProt Q9NVI1: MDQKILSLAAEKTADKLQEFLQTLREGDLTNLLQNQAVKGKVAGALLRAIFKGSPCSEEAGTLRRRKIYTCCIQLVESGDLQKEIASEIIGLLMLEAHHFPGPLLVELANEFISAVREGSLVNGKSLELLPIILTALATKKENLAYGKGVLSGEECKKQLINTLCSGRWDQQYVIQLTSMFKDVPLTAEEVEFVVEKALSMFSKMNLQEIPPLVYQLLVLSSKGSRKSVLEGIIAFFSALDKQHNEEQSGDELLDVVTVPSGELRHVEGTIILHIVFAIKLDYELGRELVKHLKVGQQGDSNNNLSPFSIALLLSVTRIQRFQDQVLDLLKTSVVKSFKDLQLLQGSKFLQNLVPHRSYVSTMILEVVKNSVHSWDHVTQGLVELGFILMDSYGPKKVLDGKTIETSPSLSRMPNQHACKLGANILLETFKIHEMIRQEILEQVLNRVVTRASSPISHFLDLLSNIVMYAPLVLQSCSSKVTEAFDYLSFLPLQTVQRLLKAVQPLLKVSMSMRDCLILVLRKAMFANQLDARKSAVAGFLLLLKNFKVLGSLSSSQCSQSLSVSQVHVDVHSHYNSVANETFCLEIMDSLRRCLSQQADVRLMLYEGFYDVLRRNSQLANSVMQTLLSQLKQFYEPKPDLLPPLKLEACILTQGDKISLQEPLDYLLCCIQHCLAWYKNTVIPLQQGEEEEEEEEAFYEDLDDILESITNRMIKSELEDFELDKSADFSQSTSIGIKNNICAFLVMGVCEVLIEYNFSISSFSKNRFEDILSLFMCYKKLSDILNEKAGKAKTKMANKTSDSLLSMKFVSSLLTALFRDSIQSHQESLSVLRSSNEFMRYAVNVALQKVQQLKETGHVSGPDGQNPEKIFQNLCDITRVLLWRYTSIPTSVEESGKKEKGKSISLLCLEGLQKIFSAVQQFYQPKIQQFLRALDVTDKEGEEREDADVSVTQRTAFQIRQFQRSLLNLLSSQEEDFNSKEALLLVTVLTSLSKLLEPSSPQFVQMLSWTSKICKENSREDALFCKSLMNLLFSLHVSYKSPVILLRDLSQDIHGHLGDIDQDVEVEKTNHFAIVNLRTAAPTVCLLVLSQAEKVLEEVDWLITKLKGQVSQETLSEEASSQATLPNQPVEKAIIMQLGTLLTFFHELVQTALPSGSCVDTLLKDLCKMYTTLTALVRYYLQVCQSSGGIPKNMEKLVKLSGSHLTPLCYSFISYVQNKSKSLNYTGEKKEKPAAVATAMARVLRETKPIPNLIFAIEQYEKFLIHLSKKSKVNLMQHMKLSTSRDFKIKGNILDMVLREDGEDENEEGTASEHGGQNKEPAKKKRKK
UniProt P62136: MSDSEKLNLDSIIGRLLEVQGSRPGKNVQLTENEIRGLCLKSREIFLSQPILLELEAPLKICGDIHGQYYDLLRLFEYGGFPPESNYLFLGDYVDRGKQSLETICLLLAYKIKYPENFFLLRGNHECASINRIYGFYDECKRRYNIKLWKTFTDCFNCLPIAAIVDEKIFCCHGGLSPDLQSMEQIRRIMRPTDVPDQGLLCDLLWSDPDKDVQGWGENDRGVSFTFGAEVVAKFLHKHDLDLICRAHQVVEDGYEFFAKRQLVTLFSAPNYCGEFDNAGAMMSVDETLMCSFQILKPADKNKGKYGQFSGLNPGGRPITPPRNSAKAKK
UniProt P12956: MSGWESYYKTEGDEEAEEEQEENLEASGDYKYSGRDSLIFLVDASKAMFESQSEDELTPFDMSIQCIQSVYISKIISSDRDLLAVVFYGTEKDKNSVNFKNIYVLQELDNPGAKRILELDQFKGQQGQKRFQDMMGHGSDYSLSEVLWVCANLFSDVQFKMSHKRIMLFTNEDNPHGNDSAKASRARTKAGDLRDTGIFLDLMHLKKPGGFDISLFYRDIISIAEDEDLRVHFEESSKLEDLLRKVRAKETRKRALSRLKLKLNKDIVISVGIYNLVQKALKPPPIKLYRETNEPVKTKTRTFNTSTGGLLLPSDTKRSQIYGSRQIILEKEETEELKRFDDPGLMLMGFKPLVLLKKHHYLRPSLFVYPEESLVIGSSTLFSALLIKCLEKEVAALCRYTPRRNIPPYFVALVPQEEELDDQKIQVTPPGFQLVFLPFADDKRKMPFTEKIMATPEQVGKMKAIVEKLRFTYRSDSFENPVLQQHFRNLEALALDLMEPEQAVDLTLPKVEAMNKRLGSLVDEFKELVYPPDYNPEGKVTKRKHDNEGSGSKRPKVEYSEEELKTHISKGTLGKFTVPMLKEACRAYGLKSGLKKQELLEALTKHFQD
UniProt P62140: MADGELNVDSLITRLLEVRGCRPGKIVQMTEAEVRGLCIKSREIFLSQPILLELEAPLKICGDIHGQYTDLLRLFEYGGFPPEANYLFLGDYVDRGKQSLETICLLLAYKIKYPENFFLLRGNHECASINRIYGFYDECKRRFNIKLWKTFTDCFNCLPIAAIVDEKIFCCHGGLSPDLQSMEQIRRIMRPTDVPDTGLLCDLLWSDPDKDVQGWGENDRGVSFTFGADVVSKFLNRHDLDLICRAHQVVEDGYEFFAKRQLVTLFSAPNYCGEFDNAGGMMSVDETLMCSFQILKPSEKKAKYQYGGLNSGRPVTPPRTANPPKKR

What follows are molecules tested against Strep-HA-DAXX-WT (human) (UniProt Q9UER7) (assay: affinity purification with mass spectrometry; triple SILAC IP-MS: Strep-HA-tagged chaperone (WT, mutant, control cells) held on MagStrep type3 XT beads for 3 hrs at 4 °C from soluble HeLa S3 extracts (300 mM NaCl, 0.05 % Nonidet P40, 50 mM Tris.HCl pH 7.6); washes at 150 mM NaCl; eluted with BXT buffer).

binding, binds:
TIF1B/TRIM28/KAP1 (from UniProt Q13263 1-835), IMA3/KPNA4 (from UniProt O00629 1-521), MCM2 (from UniProt P49736 1-904), HUWE1 (from UniProt Q7Z6Z7 1-4374), B1, B2, B3, B4, B5, B6

The molecules below were run against TwinStrep-HA-HJURP (HJURP-Strep-HA-WT) (human) (UniProt Q8NCD3) in the same assay as above.

binding, binds:
MSH6 (from UniProt P52701 1-1360), AKAP8 (from UniProt O43823 1-692), RUVB1 (from UniProt Q9Y265 1-456), FANCI (from UniProt Q9NVI1 1-1328), PRKDC (from UniProt P78527 1-4128), B7

These molecules were tested against Strep-HA-ASF1a-WT (human) (UniProt Q9Y294) in the same assay as above.

binding, binds:
PP1A (from UniProt P62136 1-330), XRCC6 (from UniProt P12956 1-609), RIF1 (from UniProt Q5UIP0 1-2472), PP1B (from UniProt P62140 1-327)

From article PMC10114496
